This passage reports binding results from PMC4175335, “Thiosulfate Transfer Mediated by DsrE/TusA Homologs from Acidothermophilic Sulfur-oxidizing Archaeon Metallosphaera cuprina*” (The Journal of Biological Chemistry, 2014).

Protein sequences, listed by entry. Tags and fused reporters are not part of them. Lines headed by an entry give the natural chain unless they say otherwise; changes in a name come on top.
UniProt F4G1H3: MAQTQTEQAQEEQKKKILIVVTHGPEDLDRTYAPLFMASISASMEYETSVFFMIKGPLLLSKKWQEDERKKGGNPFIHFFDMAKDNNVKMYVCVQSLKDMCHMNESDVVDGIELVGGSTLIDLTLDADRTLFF
UniProt F4G1H4: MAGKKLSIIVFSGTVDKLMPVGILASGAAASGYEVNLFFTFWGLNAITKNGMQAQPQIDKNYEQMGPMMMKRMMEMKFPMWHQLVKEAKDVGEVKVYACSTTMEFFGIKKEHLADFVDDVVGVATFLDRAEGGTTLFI

No constants are given. Whether binding was seen depends on the method and setting.

The experiment deals with DsrE3A (Mcup_0681) of Metallosphaera cuprina Ar-4, N-terminally His-tagged (Metallosphaera cuprina Ar-4) (UniProt F4G1H3). Description: SEC; proteins incubated together on ice for at least 1 h; HiLoad 16/60 Superdex 200; 50 mM Tris-HCl (pH 7.5), 150 mM NaCl; 1.0 ml/min; fractions checked by SDS-PAGE; both purified.

Consider “DsrE2B (Mcup_0682) of Metallosphaera cuprina Ar-4, N-terminally His-tagged (from UniProt F4G1H4)”, for which the binding entry is “no binding”.
